Results: PubChem BioAssay AID1688 (National Center for Advancing Translational Sciences (NCATS), 2009)
Hit rate of the full screen: of about 220,000 compounds, about 2,400 (1.1%) were called active. Inconclusive results, whose numbers are uncertain, are shown with a selection of clear calls. Calls follow the shape of the dose curve; as a rule, active = well fitted inhibition curve with a large enough effect; inconclusive = small, poorly fitted or top-dose-only effect, or effect the other way; inactive = no such curve, though single readings can be large or run the other way. Where the call is inconclusive, the potency comes from a doubtful curve fit.

assay: qHTS Multiplex Assay to Identify Dual Action Probes in a Cell Model of Huntington: Aggregate Formation (GFP); conditions: PC12 HttQ103-GFP aggregates, Acumen cytometry, 40 h; activity change, negative = inhibition: at 46.1 µM (top of the series) unless noted; also: nearly all actives have a fitted effect of over 60% in size
How it was run: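 Inducible Q103 Huntingtin exon 1–GFP PC12 line, 1500 cells/well in phenol red free DMEM with 5% equine and 5% calf serum. Tebufenozide 100 nM induced expression; compounds titrated; aggregates quantified by cytometry.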
% is scaled to controls: 0 for no effect and ±100 for the full control effect; potency is read from the fitted curve at half-maximal effect.

Compound | Potency | activity change, negative = inhibition
CCOC(=O)c1c(C)nc2sc(C(=O)Nc3ccccc3)c(N)c2c1-c1ccc(OC)cc1 | inconclusive: 14.1 µM [inhibitor, single point] | 
O=C(Nc1ccn(Cc2ccccc2F)n1)c1ccc(COc2cc(Cl)ccc2Cl)o1 | inconclusive: 35.5 µM [activator, single point] | 
Cc1cccc2cc(-c3ccccc3)c(-c3ccccc3)c[n+]12 | active: 17.8 µM | 
CC(=O)C1=C(C)N(CC2CC2)C(=O)N[C@H]1c1cccs1 | inconclusive: 15.8 µM [inhibitor, partial curve] | 
O=C(CN1CCN(c2ccc(O)cc2)CC1)Nc1ccc(SC(F)F)cc1 | inactive | 
CN(Cc1ccccc1)S(=O)(=O)c1ccc(NC(=S)NC(=O)C2CCCCC2)cc1 | inactive | 
Cc1cccc(-c2ncc(CN3CCN(C4CCCC4)C(CCO)C3)cn2)c1 (centres undefined) | inconclusive: 5.62 µM [activator, single point] | 
N#Cc1c(NC(=O)CSc2nc(N)cc(=O)[nH]2)sc2c1CCCCCC2 | inconclusive: 1.41 µM [inhibitor, full curve, poor fit] | 
Cc1nc2ccc(S(=O)(=O)Nc3cccc(-c4nc5cccnc5s4)c3C)cc2s1 | inconclusive: 11.2 µM [inhibitor, partial curve] | 
Cc1nc(C)n(CC(=O)N2CCCC(C(=O)c3ccc(Cl)cc3C)C2)n1 (centres undefined) |  | inactive: -9.67% [at 9.22 µM]
COc1ccccc1N1CCN(/N=C/c2cc([N+](=O)[O-])ccc2Cl)CC1 | inactive | 
N#CC(C#N)=C1C=CC=CN1/C(=C\c1ccco1)C(=O)c1ccccc1 | active: 3.16 µM | 
O=C(N1CCOCC1)n1cnc2ccccc21 | inconclusive: 10 µM [inhibitor, partial curve] | 
COc1ccc(NC(=O)C2=Cc3cccc(OC)c3OC2)cc1 | inconclusive: 0.562 µM [activator, partial curve, poor fit] | 
CN1c2ccccc2-c2nc3ccccc3n2C1c1ccncc1 (centres undefined) | inconclusive: 2.82 µM [activator, partial curve, poor fit] | 
O=C(NCc1ccncc1)C(=O)Nc1nc(C23CC4CC(CC(C4)C2)C3)cs1 | inconclusive: 12.6 µM [inhibitor, partial curve] | 
CC(=O)Nc1nonc1-c1nc2ccccc2n1CC1CC1 | active: 7.08 µM | 
C/C(=N\NC(=O)C1COc2ccccc2O1)c1ccccn1 (centres undefined) | inconclusive: 35.5 µM [inhibitor, single point] | 
Cc1cccc(OCCSc2nc3ncnc(N)c3[nH]2)c1 | inconclusive: 12.6 µM [activator, partial curve, poor fit] | 

Fetched by structure from the entries so far:
Compound | Potency | activity change, negative = inhibition
O=C(CN1CCN(c2ccc(O)cc2)CC1)Nc1ccc(SC(F)F)cc1 | inactive | 
CCOC(=O)c1c(C)nc2sc(C(=O)Nc3ccccc3)c(N)c2c1-c1ccc(OC)cc1 | inconclusive: 14.1 µM [inhibitor, single point] | 
